# From patent US12636322B2, “Bacterial strain with high cellulolytic activity” (INSTITUT NATIONAL SUPERIEUR DES SCIENCES AGRONOMIQUES DE …, priority 2021, dated 2026)
# System: F. succinogenes HC4
# Assay: Phenotypic tests for antibiotic resistance
# Assay type: cell-based, Fibrobacter succinogenes
# Conditions: liquid filter paper semi-synthetic medium, anaerobic, 48 hours at 38° C.
# Description: Eight antibiotics were tested according to EFSA recommendations for Gram-negative bacteria (31). Before being added to the filter paper semi-synthetic medium, the antibiotics were sterilized by filtration (0.22 μm filters). 24-hours cultures of strain HC4 were inoculated into media containing each antibiotic. A positive control without antibiotics was inoculated from the same culture of strain HC4 and two cultures were prepared for each condition. After 48 hours of incubation at 38° C., the observation of filter paper degradation allowed estimating the bacterial growth. In case of no degradation, a sample of liquid was taken and frozen at −20° C. for further determination of succinate production.
compound,measurement,value
O=C(O)c1cn(C2CC2)c2cc(N3CCNCC3)c(F)cc2c1=O [Ciprofloxacin],Concentrations to inhibit growth,0.25 mg/L
